The other results are listed elsewhere or left out.

Experimental findings from publication PMC7819943, “Rice protein-binding microarrays: a tool to detect cis-acting elements near promoter regions in rice” are described below.

For this experiment, the target named is T1, OsSMF1 (Oryza sativa, UniProt Q6ZLB0 1-436).
T1 sequence: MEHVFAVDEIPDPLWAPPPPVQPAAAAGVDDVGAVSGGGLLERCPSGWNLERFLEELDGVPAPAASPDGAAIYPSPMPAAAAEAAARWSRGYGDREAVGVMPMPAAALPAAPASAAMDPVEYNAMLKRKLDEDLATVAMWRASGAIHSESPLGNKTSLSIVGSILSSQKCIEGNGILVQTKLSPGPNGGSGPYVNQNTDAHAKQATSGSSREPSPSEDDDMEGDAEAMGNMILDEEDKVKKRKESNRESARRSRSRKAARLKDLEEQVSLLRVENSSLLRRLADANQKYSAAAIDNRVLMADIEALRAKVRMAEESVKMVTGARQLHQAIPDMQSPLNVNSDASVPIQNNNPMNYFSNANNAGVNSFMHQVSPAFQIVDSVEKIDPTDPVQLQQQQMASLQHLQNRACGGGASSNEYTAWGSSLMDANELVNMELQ
Description: protein-binding microarray (RPBM); PBS, 2% BSA, 51.3 ng/ul salmon testes DNA, 50 uM zinc acetate, 200 nM TF, 25 C, 1 h; high values mean tight binding. To be noted: protein: recombinant; tags: N-terminal polyhistidine and DsRed monomer fusion (pET32a); chain copies: 2; label: CyDye5-dUTP incorporated in the synthesized complementary strand; 3' TTTTT single-stranded linker to array surface; dsDNA, one strand shown. The procedure, abridged: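 A custom Agilent array was converted to double-stranded form by primer extension with Cy5-dUTP and blocked with 2% BSA. Protein at 200 nM in PBS with 2% BSA, salmon testes DNA and 50 µM zinc acetate was applied for 1 h at 25 °C, followed by washing. The proteins were polyhistidine–DsRed N-terminal fusions of transcription factors, expressed in E. coli BL21-CodonPlus and Ni–NTA-purified. The binding signal is per-feature fluorescence intensity (arbitrary units) from an Axon 4000B scanner.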
Turning to “CACAGCACCTCATTTGCGTTACCTCGTATGCCACATAGGACGGAGTCACCTAGTGCAG”, the binding signal is 5290 fluorescence intensity (a.u.).
In the case of “TGCGCCGGGAGTTTTCTCGAGCCACGTGTGCTCCTGCTATCGGAGTCACCTAGTGCAG” it was 11200 fluorescence intensity (a.u.); in that of “TCTGCAGGACACGAGGTTCATGACTGTGTTCAGTTATTACCGGAGTCACCTAGTGCAG”, 3540 fluorescence intensity (a.u.); in that of “CTTGTGGGCCCACATGTTAGTGACCACGTCACGTGGCAGTCGGAGTCACCTAGTGCAG”, 7210 fluorescence intensity (a.u.).
As to “TATTATCTGCACGCCTTCCACCTCACTCGCTAACCGTTACCGGAGTCACCTAGTGCAG”, the binding signal is 5870 fluorescence intensity (a.u.).
Regarding “ACCGAACACCCACGCCAGCCGCCGCGCGCTGCCGCCCCATCGGAGTCACCTAGTGCAG”, the binding signal was 3440 fluorescence intensity (a.u.).
With “CCCACTCCTCCAAACCCTCCGTCAGCACAGACCGGCGGTCCGGAGTCACCTAGTGCAG”, the binding signal is 3410 fluorescence intensity (a.u.).
As to “AACACCACCGCCCGCAGGTGCCAGCACCGCGCCTCCTCCACGGAGTCACCTAGTGCAG”, the binding signal is 3250 fluorescence intensity (a.u.).
The result for “AACGCCCGCTGACACGTGGGCCCCGCTTGCCCTCCAGCTCCGGAGTCACCTAGTGCAG” reads 16300 fluorescence intensity (a.u.); that for “CCGATGACGTTAGAACCATATGTGTTACTGCTGACGCATACGGAGTCACCTAGTGCAG”, 11700 fluorescence intensity (a.u.); that for “CATGCTCCTGCTCTTCCATGGCGGCGGCGACACGCACCCTCGGAGTCACCTAGTGCAG”, 3240 fluorescence intensity (a.u.).
“GTTAAATGCACGACGTCATGCAAATGCGACTGTGAGACCGCGGAGTCACCTAGTGCAG”: the binding signal was 3940 fluorescence intensity (a.u.).
The result for “GGCAGACAGCCCAACAATCAGACTTGGCGTGTACGGTTCCCGGAGTCACCTAGTGCAG” reads 3610 fluorescence intensity (a.u.).
“GATGTGACTGAAAAGTTGTGTGTGTATGACAGGTACATGTCGGAGTCACCTAGTGCAG”: the binding signal was 4090 fluorescence intensity (a.u.).
In the case of “GAATGTAGTAATACAATATGGAACTACACGTGTACTTTGCCGGAGTCACCTAGTGCAG” it was 8310 fluorescence intensity (a.u.); in that of “TTGGCCTCCACGACTACCACACCATCATCACCAAGCCCATCGGAGTCACCTAGTGCAG”, 4190 fluorescence intensity (a.u.).
As to “TTCTTTTAATTCTAATATCACATAAGCGCCACGTGAGACGCGGAGTCACCTAGTGCAG”, the binding signal was 3320 fluorescence intensity (a.u.).
In the case of “AGCATCCTGACCACCATTTGATAAAGACACACGTGGAGGCCGGAGTCACCTAGTGCAG” it was 8150 fluorescence intensity (a.u.); in that of “GGACGCTCCCGATGTGTTCCACGTCATCGATCCGCGGCACCGGAGTCACCTAGTGCAG”, 24700 fluorescence intensity (a.u.).
Turning to “GTACAGTACGTACGATGGTGCCTCATCGGCTGACCCAATCCGGAGTCACCTAGTGCAG”, the binding signal is 3790 fluorescence intensity (a.u.).
For the sequence “CAGATTAAATCATTCATGACAAGACACTTTGACCCATCATCGGAGTCACCTAGTGCAG”, the binding signal was 4090 fluorescence intensity (a.u.).
“TCTATTCCTCATAGAATCAGTTCTGCCTATTAGTTTTGTTCGGAGTCACCTAGTGCAG”: the binding signal was 24600 fluorescence intensity (a.u.).
In the case of “CAAATTTTCTTGGACTTGGAGATCAAATATTTATGACTGTCGGAGTCACCTAGTGCAG” it was 14700 fluorescence intensity (a.u.); in that of “AGCAGGTTGGAGTTCGAGGTTTAGGGCTGACATCATCGTCCGGAGTCACCTAGTGCAG”, 10900 fluorescence intensity (a.u.).
The result for “CAAAGAGGAAAGCCAAACGACCCAACCGCATATCCATTTCCGGAGTCACCTAGTGCAG” reads 28600 fluorescence intensity (a.u.).
In the case of “AGTGTACGTGAAAGCGTGGCATGGCCGATACCGACCATCTCGGAGTCACCTAGTGCAG” it was 4410 fluorescence intensity (a.u.); in that of “CAGCTGGCCACGTCATCAAACTCCTCTCTCTTTTCCCCTCCGGAGTCACCTAGTGCAG”, 38900 fluorescence intensity (a.u.); in that of “TCCACATTTAATATTTCATACATATGTCCAACATTCGATGCGGAGTCACCTAGTGCAG”, 3270 fluorescence intensity (a.u.).
As for “TGACAGAGTAAATGCGATATGAACCGCTCGATGAAATTTGCGGAGTCACCTAGTGCAG”, the binding signal is 26100 fluorescence intensity (a.u.).
As to “GAGATAGTAATAACGTGTGATTAATTAAGTTTTAATTATTCGGAGTCACCTAGTGCAG”, the binding signal was 3310 fluorescence intensity (a.u.).
Regarding “ATAGTTAGGTGACAATTGACAAGTGTCAAGTTGTGTATGACGGAGTCACCTAGTGCAG”, the binding signal is 3360 fluorescence intensity (a.u.).
On to “AAGAAGCAACACACATTTCAAATTTAAAATCCGAGTCAAGCGGAGTCACCTAGTGCAG”, for which the binding signal was 3810 fluorescence intensity (a.u.).
Turning to “CCCCATTAAACGGAAAATTAGGTGCCTGATGAATTTACATCGGAGTCACCTAGTGCAG”, the binding signal was 19600 fluorescence intensity (a.u.).
The result for “CGCACCGACGCCGCAGCCGTTGCTCCCCGTGACCAACCCCCGGAGTCACCTAGTGCAG” reads 3450 fluorescence intensity (a.u.); that for “TGTGCTATACCGCGCGCGGCGCGATCCACGTAAGAAAGTCCGGAGTCACCTAGTGCAG”, 8360 fluorescence intensity (a.u.).
The result for “GCGCGCGCGCGCCCGCGGCCATCGGCTGTCGCACGCGGCGCGGAGTCACCTAGTGCAG” reads 37900 fluorescence intensity (a.u.).
On to “GCGGCGAGGGGCGACCAGGAGCTCCCGCCCTACGTCATCACGGAGTCACCTAGTGCAG”, for which the binding signal is 6340 fluorescence intensity (a.u.).
In the case of “ATTTCCGACCGGTCATATTCATTTGTCAACCTGATTGTACCGGAGTCACCTAGTGCAG” it was 3550 fluorescence intensity (a.u.).
The result for “TTTGTTTTCTTTTCCTTGACTTGCACGCTCAAAGCACAATCGGAGTCACCTAGTGCAG” reads 3460 fluorescence intensity (a.u.).
The result for “TAGATATTTGATGTTTGTTGTTCCTTAAACATAAGCTAAGCGGAGTCACCTAGTGCAG” reads 3730 fluorescence intensity (a.u.); that for “ATTTAATGTTGTCCTAGCTAGATCCATCCAAGGCTCCAAACGGAGTCACCTAGTGCAG”, 3590 fluorescence intensity (a.u.); that for “GTAATTAATTTTAACATCATATCATCTCATAGAGAGCACGCGGAGTCACCTAGTGCAG”, 4570 fluorescence intensity (a.u.).
